Data reported in US20230211023A1 (Erasmus University Medical Center Rotterdam, priority 2020, published 2023).
End groups of sequences in plain letters are not given here.

Experiment: general procedure: Fmoc solid-phase peptide synthesis; 2-chlorotrityl chloride; HATU/DIPEA
Conditions: whole synthesis

VSGWRLFKKIS
isolated yield: 16.8%
